Source: PubChem BioAssay AID1508600 (Functional Genomics Laboratory (NCATS/FGL), 2020)
About 3,700 (7%) of roughly 53,000 sequences were called active.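 How the source made its calls: active means gene knockdowns whose robust z-score for IL-1 alpha signal is at least 2 or at most -2, so actives lie on both sides; inactive means the rest.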 The list shows a part of the results.

Assay: Components of the Cytosolic LPS Sensing Pathway: Gene Identification via Genome-wide siRNA Screen;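 further: robust z of the log signal after scaling to non-targeting control siRNA wells of the plate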
Settings: RAW264.7 macrophages, IL-1a HTRF, actives lie on both sides, screened at 100 nM (by protocol), cells primed 5 h with Pam3CSK4 first
Summary of the method: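 Supernatant IL-1a by HTRF from RAW264.7 cells primed with Pam3CSK4 (5 hours) and transfected with LipidA (24 hour) after 48h siRNA knockdown at 100 nM; cell viability checked with CellTiter-Glo.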

| Sequence | z-score |
| --- | --- |
| CGAUUCAGAUUGCACUUGUTT against Katnb1 | inactive: 0.198 |
| GCCUAGCUUUCUUGUAUUATT against Tas2r144 | inactive: -1.41 |
| GGCUAAACCUACAAUAUGUTT against Tox3 | inactive: -1.3 |
| GGAAAACCAGCUAAUUAUCTT against Ptger3 | inactive: -0.23 |
| CGACUUCGCCUUAUGAGAUTT against Tst | inactive: -1.19 |
| GGAUUCUGUUCAACAUUGGTT against Olfr1148 | inactive: 1.97 |
| CCAAGCUUCCUUCUAAAUATT against Lin52 | inactive: 0.669 |
| GGAGGAUACACAGAGGCAUTT against Tcap | inactive: -1.68 |
| CGGCAGUGGAACAAUAGACTT against Capsl | inactive: 1.89 |
| CCAUAUACCCUCGAUGCCATT against Abhd16b | active: -2.76 |
| GCUUGAAUAUGAGAACGAATT against Deup1 | inactive: -0.451 |
| GGAAAAGGCUACGGCAUUUTT against Tapbp | inactive: -1.01 |
| CCAUCCUUCCAAUUAUGAATT against Rhot1 | inactive: -0.0332 |
| GCUCUGCCUUCAGAUGAUCTT against Olfr172 | inactive: -0.592 |
| GGUGUUGCUGGUGAAGGACTT against Aifm3 | inactive: -0.965 |
| GGCAUGUGGAAAACCUCCUTT against Lrrc46 | inactive: -0.413 |
| GCACAGAGGUCAGUUAAAGTT against St8sia3 | inactive: 1 |
| GGAACACUGGAUUAUUGAGTT against Gamt | inactive: 0.326 |
| GGCUAGUGGAACACUUUAGTT against Zfp846 | inactive: -0.682 |
| GGGAGAAAUGCAAAUAUUUTT against Mbnl2 | inactive: -0.37 |
| GCUCUAGAAAGUUACAGAUTT against Crtam | inactive: 0.317 |
| GCUUCCACGUGUUUGACCATT against Hsf1 | inactive: -0.4 |
| GGAAAAGCUAAUAAAAGCUTT against Ptgis | inactive: 0.649 |
| GGCGACAUUCUCAUCCUAATT against Slc38a1 | inactive: -1.45 |
| CCAAGACCCAAACUUACUGTT against Tnnt3 | inactive: -0.368 |
| GCAAGUCCAUUCUUUUUCATT against Tmprss11g | inactive: -0.643 |
| GGUUCUCAUAACGACCAAUTT against Ddx25 | inactive: -0.0618 |
| GGGAGUAUCCAUUCAAGCCTT against Ube2l6 | inactive: 0.722 |
| GGCGAACACCAUGAAAAGGTT against Lin7b | inactive: 0.794 |
| GGUUAUGGUUUUGUUGACUTT against Rbms1 | inactive: -0.606 |

For reference, part of the list above.

| Sequence | z-score |
| --- | --- |
| GGAUUCUGUUCAACAUUGGTT against Olfr1148 | inactive: 1.97 |
| CCAAGCUUCCUUCUAAAUATT against Lin52 | inactive: 0.669 |
